Data as given in the supplement of paper PMC10849652.
The other results are listed elsewhere or left out.

Amino acid sequences for entries named in this document (tags omitted). A change or cut given only in a name is not applied to a line headed by its entry.
UniProt Q9UQR1: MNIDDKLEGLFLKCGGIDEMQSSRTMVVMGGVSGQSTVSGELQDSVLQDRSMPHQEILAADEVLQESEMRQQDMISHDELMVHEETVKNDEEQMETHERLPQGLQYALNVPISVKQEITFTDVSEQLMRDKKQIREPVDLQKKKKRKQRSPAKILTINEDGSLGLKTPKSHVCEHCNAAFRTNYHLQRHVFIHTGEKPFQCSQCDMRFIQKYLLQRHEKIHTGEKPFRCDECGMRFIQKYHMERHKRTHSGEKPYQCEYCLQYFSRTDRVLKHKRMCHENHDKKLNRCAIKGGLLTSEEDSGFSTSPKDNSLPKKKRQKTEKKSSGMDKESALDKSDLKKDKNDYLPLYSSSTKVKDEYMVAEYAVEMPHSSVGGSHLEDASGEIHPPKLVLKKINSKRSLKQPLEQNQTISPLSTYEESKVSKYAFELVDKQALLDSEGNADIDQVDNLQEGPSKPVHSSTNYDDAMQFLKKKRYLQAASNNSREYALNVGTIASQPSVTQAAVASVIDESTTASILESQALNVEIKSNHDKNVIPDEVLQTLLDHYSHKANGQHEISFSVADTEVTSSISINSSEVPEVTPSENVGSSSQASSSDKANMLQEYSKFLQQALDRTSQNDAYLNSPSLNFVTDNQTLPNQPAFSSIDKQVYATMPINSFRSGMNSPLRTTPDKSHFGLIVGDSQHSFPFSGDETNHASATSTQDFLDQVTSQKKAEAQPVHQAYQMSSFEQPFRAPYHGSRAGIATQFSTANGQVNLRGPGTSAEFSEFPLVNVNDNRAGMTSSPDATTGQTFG
UniProt Q19AV6: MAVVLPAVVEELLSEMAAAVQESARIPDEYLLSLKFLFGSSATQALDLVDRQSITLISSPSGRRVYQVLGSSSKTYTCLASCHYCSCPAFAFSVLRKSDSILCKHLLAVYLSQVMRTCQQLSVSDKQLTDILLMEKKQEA
UniProt J3KR51, whole entry, looked up: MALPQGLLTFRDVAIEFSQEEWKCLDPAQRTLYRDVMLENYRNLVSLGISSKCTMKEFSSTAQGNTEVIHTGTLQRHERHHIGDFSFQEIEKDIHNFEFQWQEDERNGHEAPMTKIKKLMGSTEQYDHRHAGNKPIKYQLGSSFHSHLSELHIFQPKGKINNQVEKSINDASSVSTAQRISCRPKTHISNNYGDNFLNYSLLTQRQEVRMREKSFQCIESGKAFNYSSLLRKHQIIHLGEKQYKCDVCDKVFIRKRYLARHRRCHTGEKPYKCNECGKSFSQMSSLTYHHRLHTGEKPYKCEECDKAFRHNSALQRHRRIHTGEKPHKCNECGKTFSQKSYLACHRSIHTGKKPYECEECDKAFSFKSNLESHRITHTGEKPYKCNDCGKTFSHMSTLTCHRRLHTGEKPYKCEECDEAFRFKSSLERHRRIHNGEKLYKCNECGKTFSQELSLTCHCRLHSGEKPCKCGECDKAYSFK
UniProt P52747: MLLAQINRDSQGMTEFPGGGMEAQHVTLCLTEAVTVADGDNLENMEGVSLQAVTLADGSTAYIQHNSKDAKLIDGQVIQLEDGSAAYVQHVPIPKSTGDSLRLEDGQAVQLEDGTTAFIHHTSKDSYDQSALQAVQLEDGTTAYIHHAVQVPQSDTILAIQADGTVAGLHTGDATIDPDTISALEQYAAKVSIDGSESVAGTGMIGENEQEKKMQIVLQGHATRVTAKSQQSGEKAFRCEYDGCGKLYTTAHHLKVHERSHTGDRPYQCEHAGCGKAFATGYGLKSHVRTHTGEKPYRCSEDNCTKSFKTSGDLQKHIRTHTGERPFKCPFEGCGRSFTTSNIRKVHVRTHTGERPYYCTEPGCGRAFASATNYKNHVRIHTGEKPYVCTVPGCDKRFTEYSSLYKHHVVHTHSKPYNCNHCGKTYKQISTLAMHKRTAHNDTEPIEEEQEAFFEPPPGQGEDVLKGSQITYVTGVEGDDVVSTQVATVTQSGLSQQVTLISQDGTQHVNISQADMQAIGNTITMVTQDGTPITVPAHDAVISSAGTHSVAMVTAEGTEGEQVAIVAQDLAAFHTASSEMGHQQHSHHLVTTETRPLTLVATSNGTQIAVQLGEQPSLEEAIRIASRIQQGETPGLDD
UniProt Q6ZMS4: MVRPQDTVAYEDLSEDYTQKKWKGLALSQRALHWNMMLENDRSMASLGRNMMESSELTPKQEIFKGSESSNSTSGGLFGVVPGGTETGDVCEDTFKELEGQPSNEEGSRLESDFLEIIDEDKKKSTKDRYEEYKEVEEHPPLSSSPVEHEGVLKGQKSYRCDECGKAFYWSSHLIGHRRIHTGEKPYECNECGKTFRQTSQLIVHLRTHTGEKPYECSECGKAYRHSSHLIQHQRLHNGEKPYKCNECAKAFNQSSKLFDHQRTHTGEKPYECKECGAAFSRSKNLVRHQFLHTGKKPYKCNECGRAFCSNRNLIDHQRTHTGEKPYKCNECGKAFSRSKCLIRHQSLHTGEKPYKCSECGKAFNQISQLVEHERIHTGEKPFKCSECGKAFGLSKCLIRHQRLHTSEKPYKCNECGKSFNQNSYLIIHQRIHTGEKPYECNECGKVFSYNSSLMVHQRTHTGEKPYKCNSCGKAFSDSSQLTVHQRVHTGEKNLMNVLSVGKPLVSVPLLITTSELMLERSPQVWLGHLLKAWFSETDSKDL
UniProt Q86YH2: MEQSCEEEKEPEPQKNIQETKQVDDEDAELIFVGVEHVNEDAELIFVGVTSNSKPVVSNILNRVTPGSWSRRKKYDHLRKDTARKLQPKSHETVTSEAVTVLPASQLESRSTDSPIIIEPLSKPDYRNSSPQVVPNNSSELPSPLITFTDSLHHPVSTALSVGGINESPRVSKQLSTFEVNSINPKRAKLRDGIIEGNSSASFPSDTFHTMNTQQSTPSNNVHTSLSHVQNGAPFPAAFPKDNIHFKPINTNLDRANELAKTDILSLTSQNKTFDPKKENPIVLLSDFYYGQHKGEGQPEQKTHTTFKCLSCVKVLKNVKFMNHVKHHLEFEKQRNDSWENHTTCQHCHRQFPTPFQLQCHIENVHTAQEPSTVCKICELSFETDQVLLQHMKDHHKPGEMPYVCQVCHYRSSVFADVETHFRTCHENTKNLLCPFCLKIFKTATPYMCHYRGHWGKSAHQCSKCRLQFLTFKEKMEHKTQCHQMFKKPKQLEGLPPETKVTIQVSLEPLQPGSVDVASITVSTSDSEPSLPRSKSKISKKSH
UniProt Q969J2: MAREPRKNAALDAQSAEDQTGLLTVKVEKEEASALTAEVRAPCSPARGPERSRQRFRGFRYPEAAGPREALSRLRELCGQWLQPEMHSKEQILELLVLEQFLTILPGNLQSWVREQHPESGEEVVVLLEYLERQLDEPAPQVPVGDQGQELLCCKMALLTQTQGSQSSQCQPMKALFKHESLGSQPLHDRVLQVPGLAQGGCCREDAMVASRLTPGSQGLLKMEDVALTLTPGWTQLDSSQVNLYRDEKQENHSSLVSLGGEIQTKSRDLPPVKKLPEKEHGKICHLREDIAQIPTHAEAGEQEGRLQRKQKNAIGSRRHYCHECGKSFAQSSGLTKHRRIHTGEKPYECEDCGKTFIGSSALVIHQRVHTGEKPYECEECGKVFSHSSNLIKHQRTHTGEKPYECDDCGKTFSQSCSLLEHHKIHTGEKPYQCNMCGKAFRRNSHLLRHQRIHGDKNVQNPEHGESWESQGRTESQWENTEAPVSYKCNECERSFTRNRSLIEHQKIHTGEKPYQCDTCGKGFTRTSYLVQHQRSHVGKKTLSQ
UniProt Q96ME7: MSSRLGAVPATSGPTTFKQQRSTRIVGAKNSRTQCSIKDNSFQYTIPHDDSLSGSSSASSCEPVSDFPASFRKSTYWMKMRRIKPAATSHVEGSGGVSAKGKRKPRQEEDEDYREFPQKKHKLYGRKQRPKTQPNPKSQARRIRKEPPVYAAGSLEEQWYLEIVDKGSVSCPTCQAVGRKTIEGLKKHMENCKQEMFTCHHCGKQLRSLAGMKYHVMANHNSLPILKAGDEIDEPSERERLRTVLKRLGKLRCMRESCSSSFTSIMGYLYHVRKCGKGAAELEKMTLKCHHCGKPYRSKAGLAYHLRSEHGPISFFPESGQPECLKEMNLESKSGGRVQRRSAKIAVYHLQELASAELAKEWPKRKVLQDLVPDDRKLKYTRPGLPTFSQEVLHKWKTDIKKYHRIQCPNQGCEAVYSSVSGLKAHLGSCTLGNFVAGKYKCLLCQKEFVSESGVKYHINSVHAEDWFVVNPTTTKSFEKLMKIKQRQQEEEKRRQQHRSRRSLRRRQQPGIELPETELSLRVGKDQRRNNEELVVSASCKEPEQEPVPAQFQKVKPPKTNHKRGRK
UniProt O00488: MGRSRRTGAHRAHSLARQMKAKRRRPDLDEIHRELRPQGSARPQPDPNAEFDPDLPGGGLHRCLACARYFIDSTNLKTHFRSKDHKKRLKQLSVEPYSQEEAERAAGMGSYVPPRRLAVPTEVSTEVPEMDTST
UniProt Q9ULU4: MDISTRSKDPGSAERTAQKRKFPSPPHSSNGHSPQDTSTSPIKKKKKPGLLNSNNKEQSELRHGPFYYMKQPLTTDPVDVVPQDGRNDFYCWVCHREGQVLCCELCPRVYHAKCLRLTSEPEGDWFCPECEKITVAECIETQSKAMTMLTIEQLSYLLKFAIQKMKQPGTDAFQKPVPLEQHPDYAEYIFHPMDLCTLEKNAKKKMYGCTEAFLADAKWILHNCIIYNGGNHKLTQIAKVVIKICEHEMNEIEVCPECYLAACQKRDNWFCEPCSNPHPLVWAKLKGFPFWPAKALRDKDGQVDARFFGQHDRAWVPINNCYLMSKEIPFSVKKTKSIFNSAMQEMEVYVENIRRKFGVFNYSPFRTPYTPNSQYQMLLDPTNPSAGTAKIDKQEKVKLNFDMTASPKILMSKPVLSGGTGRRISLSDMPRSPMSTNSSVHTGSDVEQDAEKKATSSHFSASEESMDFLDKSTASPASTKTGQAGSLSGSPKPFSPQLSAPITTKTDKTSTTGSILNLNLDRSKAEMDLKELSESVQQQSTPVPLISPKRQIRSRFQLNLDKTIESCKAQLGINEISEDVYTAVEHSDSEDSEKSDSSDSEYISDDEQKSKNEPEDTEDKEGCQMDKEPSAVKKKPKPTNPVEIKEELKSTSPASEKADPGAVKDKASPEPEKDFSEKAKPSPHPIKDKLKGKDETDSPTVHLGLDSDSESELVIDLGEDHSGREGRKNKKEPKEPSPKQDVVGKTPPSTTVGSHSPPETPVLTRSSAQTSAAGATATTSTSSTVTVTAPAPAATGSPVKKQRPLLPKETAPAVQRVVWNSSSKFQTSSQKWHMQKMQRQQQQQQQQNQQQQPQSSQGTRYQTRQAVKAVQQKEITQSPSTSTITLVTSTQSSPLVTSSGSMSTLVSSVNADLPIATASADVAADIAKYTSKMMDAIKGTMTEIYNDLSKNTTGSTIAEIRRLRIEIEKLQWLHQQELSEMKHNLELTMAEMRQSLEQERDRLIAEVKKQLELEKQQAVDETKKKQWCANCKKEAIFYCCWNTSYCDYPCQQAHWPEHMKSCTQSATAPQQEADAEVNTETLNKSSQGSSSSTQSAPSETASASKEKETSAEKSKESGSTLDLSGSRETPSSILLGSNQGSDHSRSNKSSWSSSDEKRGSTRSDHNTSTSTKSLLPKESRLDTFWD
UniProt Q86UK7: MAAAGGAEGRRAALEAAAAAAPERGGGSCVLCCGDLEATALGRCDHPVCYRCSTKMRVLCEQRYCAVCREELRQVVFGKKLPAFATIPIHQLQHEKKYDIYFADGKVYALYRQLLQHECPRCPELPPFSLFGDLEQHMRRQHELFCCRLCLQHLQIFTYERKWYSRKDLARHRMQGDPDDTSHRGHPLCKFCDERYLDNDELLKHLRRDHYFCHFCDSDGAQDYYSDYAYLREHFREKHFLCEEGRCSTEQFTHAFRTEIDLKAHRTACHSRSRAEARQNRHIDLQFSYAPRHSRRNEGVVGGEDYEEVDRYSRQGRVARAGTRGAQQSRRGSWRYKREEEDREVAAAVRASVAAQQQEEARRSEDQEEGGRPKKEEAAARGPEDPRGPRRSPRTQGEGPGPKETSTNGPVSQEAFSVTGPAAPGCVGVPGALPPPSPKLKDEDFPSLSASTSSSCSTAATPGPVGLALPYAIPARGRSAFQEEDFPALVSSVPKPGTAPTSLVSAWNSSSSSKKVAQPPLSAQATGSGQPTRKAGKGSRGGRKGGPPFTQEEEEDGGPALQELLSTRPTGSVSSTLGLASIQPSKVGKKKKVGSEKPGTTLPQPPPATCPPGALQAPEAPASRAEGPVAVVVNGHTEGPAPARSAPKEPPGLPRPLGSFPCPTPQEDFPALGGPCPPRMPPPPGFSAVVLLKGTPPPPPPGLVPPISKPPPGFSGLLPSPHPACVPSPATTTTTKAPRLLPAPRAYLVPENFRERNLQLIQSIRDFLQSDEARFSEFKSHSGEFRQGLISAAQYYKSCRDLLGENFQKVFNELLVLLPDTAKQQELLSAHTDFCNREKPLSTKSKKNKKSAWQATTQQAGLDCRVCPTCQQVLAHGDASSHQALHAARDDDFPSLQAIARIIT

compound: O=C(CCCCCCC(=O)Nc1ccccc1)NO [vorinostat]; assay: log2 fold change, soluble protein after heating vs DMSO (PISA); higher = thermal stabilisation; K562 lysate, 10 uM; active = over 0.2 and 3.5 SD of the protein, either way, in both replicates (recomputed)
How it was run: (§1)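 Thermal stability, expressed as log-two fold change relative to solvent controls, is given from duplicates. Crude K562 extract in PBS pH 7.4 with 1 mM MgCl2, at 1 mg/mL protein, was treated with 10 μM compound for 30 min and heated in aliquots for 3 min across 48°C-58°C. After pooling, adjustment to 0.5% NP-40 at 4°C and centrifugation at 21,000xg for 90 min, supernatant protein was measured by TMTpro 16plex LC-MS/MS with channel sums equalised.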

log2 fold change, inactive:
ZNF148 (UniProt Q9UQR1) -0.015
ZW10 (UniProt O43264) -0.228
ZSWIM7 (UniProt Q19AV6) -0.188
ZNF525 (UniProt J3KR51) -0.4
ZNF845 (UniProt Q96IR2) -0.297
ZMYM1 (UniProt Q5SVZ6) -0.202
ZNF787 (UniProt Q6DD87) 0.194
ZNF639 (UniProt Q9UID6) 0.136
ZNF143 (UniProt P52747) 0.151
ZNHIT3 (UniProt Q15649) 0.04
ZNF76 (UniProt P36508) 0.193
ZNF239 (UniProt Q16600) -0.01
ZMYM5 (UniProt Q9UJ78) -0.275
ZNF629 (UniProt Q9UEG4) 0.077
ZNF92 (UniProt Q03936) -0.145
ZNF852 (UniProt Q6ZMS4) 0.153
ZNF280B (UniProt Q86YH2) -0.374
ZKSCAN4 (UniProt Q969J2) -0.285
ZNF830 (UniProt Q96NB3) 0.072
ZNF512 (UniProt Q96ME7) -0.052
ZNF445 (UniProt P59923) 0.209
ZNF622 (UniProt Q969S3) 0.074
ZNFX1 (UniProt Q9P2E3) -0.296
ZMIZ1 (UniProt Q9ULJ6) -0.066
ZNRD2 (UniProt G3V1B8) 0.005
ZNF593 (UniProt O00488) 0.191
ZNF8 (UniProt P17098) -0.137
ZNF638 (UniProt Q14966) -0.048

log2 fold change, active:
ZMYND8 isoform 19 (UniProt Q9ULU4) -0.224
ZNF598 isoform 3 (UniProt Q86UK7) -0.338

compound: O=C(O)c1ccc2c(c1)nc(Nc1cccc(Cl)c1)c1ccncc12 [silmitasertib]; assay: as above
How it was run: as §1

log2 fold change, active:
ZNF845 (UniProt Q96IR2) 0.364

log2 fold change, inactive:
ZNF148 (UniProt Q9UQR1) 0.169
ZW10 (UniProt O43264) 0.019
ZSWIM7 (UniProt Q19AV6) -0.211
ZNF525 (UniProt J3KR51) 0.199
ZMYM1 (UniProt Q5SVZ6) 0.042
ZNF787 (UniProt Q6DD87) 0.029
ZNF639 (UniProt Q9UID6) -0.073
ZNF143 (UniProt P52747) -0.012
ZNHIT3 (UniProt Q15649) 0.049
ZNF76 (UniProt P36508) -0.007
ZNF239 (UniProt Q16600) -0.105
ZMYM5 (UniProt Q9UJ78) 0.077
ZNF629 (UniProt Q9UEG4) -0.024
ZNF92 (UniProt Q03936) 0.047
ZNF852 (UniProt Q6ZMS4) -0.084
ZNF280B (UniProt Q86YH2) -0.077
ZKSCAN4 (UniProt Q969J2) 0.074
ZNF830 (UniProt Q96NB3) 0.001
ZMYND8 isoform 19 (UniProt Q9ULU4) 0.029
ZNF512 (UniProt Q96ME7) 0.027
ZNF445 (UniProt P59923) -0.213
ZNF598 isoform 3 (UniProt Q86UK7) 0
ZNF622 (UniProt Q969S3) -0.014
ZNFX1 (UniProt Q9P2E3) 0.069
ZMIZ1 (UniProt Q9ULJ6) -0.007
ZNRD2 (UniProt G3V1B8) -0.024
ZNF593 (UniProt O00488) -0.001
ZNF8 (UniProt P17098) 0.001
ZNF638 (UniProt Q14966) -0.014
